The list is a part of this screen's results and no random one: it gathers tests that were run many times, whatever their T/C, doses with no T/C, and many T/C values between a quarter and a half above the control. Further doses and runs are listed elsewhere. T/C: endpoint of the treated group in % of that of the vehicle group. Schedules are NCI's codes, read here as Q, the interval in days (D) or hours (H), X, the number of doses. Some T/C values are negative: the treated tumours shrank. Some entries were tested several times; their values stand side by side, smallest first. Some T/C values are followed by the survivors on the day toxicity was checked, most often the fifth; without a count, all were alive then. Some entries give survivors of the animals treated and no T/C: the source files T/C as zero there, which appears to mark a toxic dose or a test without result, not a measured value. Counts of survivors are from the toxicity check (mostly the fifth day) where no day follows; animals may have died later.
System: CD8F1 mice, subcutaneous mammary adenocarcinoma, T/C%
Assay: NCI In Vivo Anticancer Drug Screen. Data for tumor model Mammary Adenocarcinoma CD8F1 (subcutaneous) in CD8F1
Conditions: higher T/C = larger tumour
Outline: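 Tumor-bearing mice, transplantable model; readout survival or tumor size; value = treated (T) / vehicle control (C).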

[1] = T/C endpoint: median tumor weight change, dose: 1600.0 mg/kg/injection, schedule: Q01DX001 (ip), vehicle: saline
[2] = T/C endpoint: median tumor weight (est.), dose: 25.0 mg/kg/injection, schedule: Q07DX005 (ip), vehicle: saline
[3] = T/C endpoint: median tumor weight (est.), dose: 50.0 mg/kg/injection, schedule: Q07DX005 (ip), vehicle: saline

COC1=C(NC(C)=O)C(=O)c2nc(-c3nc(C(=O)O)c(C)c(-c4ccc(OC)c(OC)c4O)c3N)ccc2C1=O was tested, and the T/C (T/C endpoint: median tumor weight change, dose: 25.0 mg/kg/injection, schedule: Q01DX001 (ip), vehicle: Klucel (hydroxypropylcellulose) (HPC), evaluated on day 29) was -16 and 219 % of control, the T/C (T/C endpoint: median tumor weight change, dose: 25.0 mg/kg/injection, schedule: Q01DX001 (ip), vehicle: Klucel (hydroxypropylcellulose) (HPC), evaluated on day 30) was 35 % of control and the T/C (T/C endpoint: median tumor weight change, dose: 25.0 mg/kg/injection, schedule: Q01DX001 (ip), vehicle: Klucel (hydroxypropylcellulose) (HPC), evaluated on day 34) was 57 % of control. The T/C (T/C endpoint: median tumor weight change, dose: 50.0 mg/kg/injection, schedule: Q01DX001 (ip), vehicle: Klucel (hydroxypropylcellulose) (HPC), evaluated on day 29) was -17 and 195 % of control, the T/C (T/C endpoint: median tumor weight change, dose: 50.0 mg/kg/injection, schedule: Q01DX001 (ip), vehicle: Klucel (hydroxypropylcellulose) (HPC), evaluated on day 30) was 6 % of control and the T/C (T/C endpoint: median tumor weight change, dose: 50.0 mg/kg/injection, schedule: Q01DX001 (ip), vehicle: Klucel (hydroxypropylcellulose) (HPC), evaluated on day 34) was 52 % of control. For the same compound, the T/C (T/C endpoint: median tumor weight change, dose: 100.0 mg/kg/injection, schedule: Q01DX001 (ip), vehicle: Klucel (hydroxypropylcellulose) (HPC), evaluated on day 29) was -61 and 136 % of control, the T/C (T/C endpoint: median tumor weight change, dose: 100.0 mg/kg/injection, schedule: Q01DX001 (ip), vehicle: Klucel (hydroxypropylcellulose) (HPC), evaluated on day 30) was -62 % of control and the T/C (T/C endpoint: median tumor weight change, dose: 100.0 mg/kg/injection, schedule: Q01DX001 (ip), vehicle: Klucel (hydroxypropylcellulose) (HPC), evaluated on day 34) was 34 % of control. For the same compound, the T/C (T/C endpoint: median tumor weight change, dose: 200.0 mg/kg/injection, schedule: Q01DX001 (ip), vehicle: Klucel (hydroxypropylcellulose) (HPC), evaluated on day 29) was -84 % of control [9 of 10 alive on day 29], the T/C (T/C endpoint: median tumor weight change, dose: 200.0 mg/kg/injection, schedule: Q01DX001 (ip), vehicle: Klucel (hydroxypropylcellulose) (HPC), evaluated on day 30) was -74 % of control and the T/C (T/C endpoint: median tumor weight change, dose: 200.0 mg/kg/injection, schedule: Q01DX001 (ip), vehicle: Klucel (hydroxypropylcellulose) (HPC), evaluated on day 34) was 8 % of control [9 of 10 alive on day 34]. The survivor count (T/C endpoint: median tumor weight change, dose: 200.0 mg/kg/injection, schedule: Q01DX001 (ip), vehicle: Klucel (hydroxypropylcellulose) (HPC)) was 6 of 10 on day 29, the survivor count (T/C endpoint: median tumor weight change, dose: 400.0 mg/kg/injection, schedule: Q01DX001 (ip), vehicle: Klucel (hydroxypropylcellulose) (HPC)) was 0 of 10 on day 29, 1 of 10 on day 29, 2 of 10 on day 30, 2 of 10 on day 34 and the survivor count (T/C endpoint: median tumor weight change, dose: 800.0 mg/kg/injection, schedule: Q01DX001 (ip), vehicle: Klucel (hydroxypropylcellulose) (HPC)) was 0 of 10 on day 29 and 1 of 10 on day 30.
OC(CCl)CN1CC[N+]2(CC1)CC[N+]1(CCN(CC(O)CCl)CC1)CC2 (stereo unspecified) was tested, and the survivor count [1] was 1 of 10 on day 27.
With CCOC(=O)C(N)CSC(=O)NC (stereo unspecified) the survivor count [1] was 0 of 10 on day 35 and the survivor count (T/C endpoint: median tumor weight change, dose: 2000.0 mg/kg/injection, schedule: Q01DX001 (ip), vehicle: saline) was 0 of 10 on day 32 and 0 of 10 on day 38.
ClCCCN1CCCCC1CCl (stereo unspecified) was tested, and the survivor count [2] was 5 of 10 on day 30 and the survivor count [3] was 0 of 10 on day 30.
In the case of OCC1OC(n2cnc3c(=S)nc[nH]c32)C(O)C1O (stereo unspecified), the survivor count (T/C endpoint: median tumor weight (est.), dose: 1600.0 mg/kg/injection, schedule: Q07DX005 (ip), vehicle: saline with Tween-80) is reported as 4 of 10 on day 30.
For CCCCCCCCCCS(=O)CC(CO)NC(=O)/C=C/c1c(C)[nH]c(=O)[nH]c1=O (stereo unspecified), the T/C (T/C endpoint: median tumor weight (est.), dose: 6.0 mg/kg/injection, schedule: Q07DX005 (ip), vehicle: saline with Tween-80, evaluated on day 30) was 148 % of control [9 of 10 alive on day 30] and the T/C (T/C endpoint: median tumor weight (est.), dose: 12.0 mg/kg/injection, schedule: Q07DX005 (ip), vehicle: saline with Tween-80, evaluated on day 30) was 144 % of control.
C[n+]1c2cc(N)ccc2cc2ccc(N)cc21 was tested, and the survivor count [2] was 3 of 10 on day 30 and the survivor count [3] was 0 of 10 on day 30.
COc1ccc(/C=C/C(=O)c2cc(C(=O)O)c(OC)cc2OC)cc1OC was tested, and the survivor count (T/C endpoint: median tumor weight (est.), dose: 400.0 mg/kg/injection, schedule: Q07DX005 (ip), vehicle: saline) was 0 of 10 on day 30.

— PubChem BioAssay AID220 (DTP/NCI, 2004)
